The text below walks through data of article PMC4741457, “Structural basis for the indispensable role of a unique zinc finger motif in LNX2 ubiquitination” (Oncotarget, 2015).

For this assay, the target named is Zn-RING-Zn domain of LNX2 (aa 20-147) Lys109Ala (human) (UniProt Q8N448). In words: SEC; calibrated gel-filtration column (Superdex 75 or Superdex 200), each protein run alone; both purified.

These are yes or no findings as the source states them, for the method shown.

B1: Zn-RING-Zn domain of LNX2 (aa 20-147) Lys109Ala (domain or fragment, UniProt Q8N448 20-147)
chain: NPLCFECGQQHWTRENHLYNYQNEVDDDLVCHICLQPLLQPLDTPCGHTFCYKCLRNFLQEKDFCPLDRKRLHFKLCKKSSILVHKLLDALLVLCPFSSVCKDVMQRCDLEAHLKNRCPGASHRRVAL
Regarding B1, the binding entry is given as “no binding”.
